Source: article PMC12305709, “Functional investigation of the RNA helicase MOV10 with respect to its interplay with factors involved in nonsense-mediated mRNA decay” (The Journal of Biological Chemistry, 2025)
The exact form of at least one protein or probe is not confirmed. The comparison behind a weaker result is the experiment's own reference, which may not be listed here. Protein sequences can lack the tags named with them.

System: T1, UPF1 (Homo sapiens)
T1 sequence (looked up, limits assumed): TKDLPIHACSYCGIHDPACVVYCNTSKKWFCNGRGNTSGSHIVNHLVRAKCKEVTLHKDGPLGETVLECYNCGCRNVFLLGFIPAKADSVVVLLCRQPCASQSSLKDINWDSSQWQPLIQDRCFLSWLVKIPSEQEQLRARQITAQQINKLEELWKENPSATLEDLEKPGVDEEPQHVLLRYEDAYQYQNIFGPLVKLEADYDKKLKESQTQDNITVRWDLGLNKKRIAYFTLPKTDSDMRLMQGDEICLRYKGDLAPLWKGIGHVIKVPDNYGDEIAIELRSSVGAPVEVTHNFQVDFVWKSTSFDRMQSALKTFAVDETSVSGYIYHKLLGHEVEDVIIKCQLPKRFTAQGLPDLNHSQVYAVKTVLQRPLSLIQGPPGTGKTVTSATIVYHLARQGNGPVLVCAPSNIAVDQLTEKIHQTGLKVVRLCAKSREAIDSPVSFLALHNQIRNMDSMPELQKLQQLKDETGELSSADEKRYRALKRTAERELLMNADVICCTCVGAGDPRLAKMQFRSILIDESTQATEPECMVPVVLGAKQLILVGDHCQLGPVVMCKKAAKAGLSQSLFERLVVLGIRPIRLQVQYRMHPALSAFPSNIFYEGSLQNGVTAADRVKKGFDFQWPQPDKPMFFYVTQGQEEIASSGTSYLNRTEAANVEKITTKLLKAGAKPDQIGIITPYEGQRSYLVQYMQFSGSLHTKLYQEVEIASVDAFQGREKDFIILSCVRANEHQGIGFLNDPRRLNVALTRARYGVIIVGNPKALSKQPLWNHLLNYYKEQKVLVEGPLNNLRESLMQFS
Assay: fluorescence anisotropy
Details: 1 mM ATPgS, decreased affinity, Kd only in figure; 20 mM Hepes pH 7.5, 100 mM NaCl, 1 mM MgCl2, 100 ug/ml BSA; 5 nM RNA; 30 min room temperature, read at 25 C; recombinant protein; label: 5' 6-FAM

UUUUUUUUUUUU [U12 RNA]: binds more weakly.
